Source: ChEMBL document CHEMBL3988442, “University of Dundee, Small-Polar-MMV Screening Library” (2021).

Chains of the proteins cited; added tags and fusions are not shown. Residues count along the entry.
UniProt Q4DA54, 1-478: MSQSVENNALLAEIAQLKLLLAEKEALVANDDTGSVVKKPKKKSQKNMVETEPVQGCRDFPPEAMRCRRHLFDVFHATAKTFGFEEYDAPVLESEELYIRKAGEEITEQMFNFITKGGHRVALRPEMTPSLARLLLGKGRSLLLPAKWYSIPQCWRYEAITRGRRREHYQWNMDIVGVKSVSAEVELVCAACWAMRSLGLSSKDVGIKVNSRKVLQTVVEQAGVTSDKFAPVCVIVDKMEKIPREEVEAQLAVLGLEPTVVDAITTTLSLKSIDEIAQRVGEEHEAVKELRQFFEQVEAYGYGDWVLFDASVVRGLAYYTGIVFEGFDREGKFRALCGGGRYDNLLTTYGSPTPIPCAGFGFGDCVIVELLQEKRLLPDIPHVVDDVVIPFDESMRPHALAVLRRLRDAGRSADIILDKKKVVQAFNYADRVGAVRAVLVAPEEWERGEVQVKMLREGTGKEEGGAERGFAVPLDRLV

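Histidine-tRNA ligase, Trypanosoma cruzi CL Brener (UniProt Q4DA54). Enzyme assay of histidyl-tRNA synthetase; the read-out is not stated. Concentration: 30 µM. Higher reads as stronger inhibition (inferred: compounds with an IC50 in retests scored well above the rest). About 69,000 compounds were tested under these conditions; 0.045% (about 31) showed 50% or more at least once.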

Each number is a percent effect as filed.
The record does not define 0% and 100%; most values in the screen are far below 50% and negative numbers occur (in some assays of this library far below -100).
The compounds are a random part of those screened.

- Nc1nc(CCC(=O)N2C[C@@H](CN3CCCC3)C[C@H](CO)C2)n[nH]1 | -1.604%
- COc1ccc(-n2c(SCC(=O)O)nnc2-c2cn[nH]c2)cc1 | 5.435%
- CN1CCN(C(=O)c2cc(NC(=O)c3ccccc3)n(C)n2)CC1 | 9.901%
- CCn1c(CN2CCCC2)nnc1C1CCN(Cc2ccccn2)CC1 | 7.921%
- O=C(NCc1cc[nH]n1)N1CCN(c2ncccn2)CC1 | -4.046%
- CC(OCC1CC1)C(=O)NCc1ccc(Cn2ccnc2)cc1 (stereo not shown) | 4.046%
- CN(C)S(=O)(=O)NCCn1nc(-c2ccccc2)n(C)c1=O | 5.155%
- Cn1cc(C2CCCN2C(=O)Cn2ccc3ccccc32)cn1 (stereo not shown) | 4.712%
- CC(C)n1ccnc1Cn1ccc2ncccc2c1=O | -0.5525%
- O=C(NCCCn1cccn1)C1COCC(=O)N1Cc1ccccc1 (stereo not shown) | 7.143%
- Cc1csc([C@@H]2C[C@H]3CN(c4ncc(F)cn4)C[C@H]3O2)n1 | -3.333%
- CSCC(=O)N1CCCN(c2ccncc2C)CC1 | 4.082%
- CCN1CCN(CC(=O)N2CCOC(Cc3ccc(OC)cc3)C2)CC1 (stereo not shown) | 3.896%
- CCC(C)(C)C1CCCN1C(=O)c1coc(S(=O)(=O)NC)c1 (stereo not shown) | 6.404%
- O=S1(=O)NCC2(CCN(Cc3ccncc3)CC2)Oc2ncccc21 | 2.959%
- CCOc1cccc(CSC(C)c2nc(C)no2)n1 (stereo not shown) | 0.431%
- COCCN1C[C@H]2CN(Cc3cccc(OC)c3)CCN2C1=O | -2.488%
- CC(C)C(=O)NCc1ccc(-n2cncn2)nc1 | -4.202%
- CCC[C@H]1CN(S(=O)(=O)c2ccc(Cl)cc2)C[C@@H]1NC(C)=O | 2.41%
- CCC(NC(=O)CC1CCN(C(C)C)CC1)c1cn2cccnc2n1 (stereo not shown) | 1.064%
- CS(=O)(=O)NC(=O)c1nnn(-c2ccccc2)c1C1CC1 | 5.202%
- CN(C)C1CCCN(C(=O)NCCC(C)(C)C)C1 (stereo not shown) | -1.622%
- CN1CCOC(CNCC(=O)NCCCc2ccccc2)C1 (stereo not shown) | 7.182%
- Cc1nc(CN2CCCN(C(=O)c3cccn3C)CC2)cs1 | 10.84%
- CNS(=O)(=O)CCCN(C)Cc1cc(C)ccc1OC | -0.5848%
- CCN(CC)S(=O)(=O)c1cnccc1N1CCN(C(C)C)CC1 | 3.509%
- Cc1nc2cc(NCc3cnn(C)c3)ccc2n1C | 7.772%
- Cc1csc(NC(=O)c2cnc(C3CCCN3)cn2)n1 (stereo not shown) | 6.844%
- CC(C)Cc1cc(C(=O)NC(C)(C)CN2CCCCCC2)on1 | 3.352%
- CCc1nc2ccccc2c(=O)n1CC1(O)CCN(S(C)(=O)=O)CC1 | -0.5405%
- COCCCn1c(CN2CCCC(O)C2)cnc1S(=O)(=O)C1CCCC1 (stereo not shown) | 0%
- Cc1cc(C)n(CC(=O)N2CCC(c3nc(C(C)C)no3)CC2)n1 | 2.609%
- Cc1cc(CN2Cc3ccccc3CC2c2nnc(C)o2)on1 (stereo not shown) | 1.132%
- Cc1cc(C)c(NC(=O)Nc2cnn(CC(O)CN(C)C)c2)c(C)c1 (stereo not shown) | 8.04%
- Cn1cccc1C(=O)N1CCC2(CCN(C(=O)c3cccnc3)C2)CC1 | 10.58%
- Cn1nc(N2CCCC(C(=O)Nc3nc4ccccc4s3)C2)ccc1=O (stereo not shown) | 2.424%
- O=C1CN(C(=O)c2cc(Cl)ccc2F)c2ccccc2N1 | 5.155%
- O=C(CC1COCCN1C(=O)c1cscn1)c1ccccc1 (stereo not shown) | -1.031%
- CC1c2cccn2CCN1C(=O)CCc1nc(C2CC2)no1 (stereo not shown) | 5.699%
- CN(C)CC(=O)N1CCOCC(Cc2ccccn2)C1 (stereo not shown) | 4.615%
- CCCNC(=O)C1CCCN(Cc2csc(C(C)(C)C)n2)C1 (stereo not shown) | 6.286%
- Cc1ccc(C(=O)NCCCn2cccn2)c(=O)[nH]1 | 3.191%
- CCCN(Cc1cnn(C)c1)CC1CCCN(S(C)(=O)=O)C1 (stereo not shown) | 3.448%
- OC1COCCN(Cc2cccc(N3CCOCC3)c2)C1 (stereo not shown) | 0.9804%
- CCc1noc(C(C)N(C)CC(=O)Nc2cccc(C)c2C)n1 (stereo not shown) | -1.84%
- CCN(CC)c1ccc(C(=O)N2CCC(c3nc(C)no3)CC2)cn1 | 4.706%
- Cc1cc(C(=O)NC(C)Cc2ccccc2Cl)n(C)n1 (stereo not shown) | 4.464%
- COC(=O)NCC(=O)N1CCCC(c2ncc[nH]2)C1 (stereo not shown) | 3.659%
- O=C(O)c1cc2c(nc1-c1ccncc1)CCN(Cc1ccoc1)CC2 | 6.897%

The last 3 entries again:

{"structure": "Cc1cc(C(=O)NC(C)Cc2ccccc2Cl)n(C)n1", "stereo": "stereo not shown", "effect": 4.464}
{"structure": "COC(=O)NCC(=O)N1CCCC(c2ncc[nH]2)C1", "stereo": "stereo not shown", "effect": 3.659}
{"structure": "O=C(O)c1cc2c(nc1-c1ccncc1)CCN(Cc1ccoc1)CC2", "effect": 6.897}